Data on 3 substances can be found in paper PMC8513302.

By UniProt entry, the sequences of proteins in these tests, tags left out.
UniProt P35222: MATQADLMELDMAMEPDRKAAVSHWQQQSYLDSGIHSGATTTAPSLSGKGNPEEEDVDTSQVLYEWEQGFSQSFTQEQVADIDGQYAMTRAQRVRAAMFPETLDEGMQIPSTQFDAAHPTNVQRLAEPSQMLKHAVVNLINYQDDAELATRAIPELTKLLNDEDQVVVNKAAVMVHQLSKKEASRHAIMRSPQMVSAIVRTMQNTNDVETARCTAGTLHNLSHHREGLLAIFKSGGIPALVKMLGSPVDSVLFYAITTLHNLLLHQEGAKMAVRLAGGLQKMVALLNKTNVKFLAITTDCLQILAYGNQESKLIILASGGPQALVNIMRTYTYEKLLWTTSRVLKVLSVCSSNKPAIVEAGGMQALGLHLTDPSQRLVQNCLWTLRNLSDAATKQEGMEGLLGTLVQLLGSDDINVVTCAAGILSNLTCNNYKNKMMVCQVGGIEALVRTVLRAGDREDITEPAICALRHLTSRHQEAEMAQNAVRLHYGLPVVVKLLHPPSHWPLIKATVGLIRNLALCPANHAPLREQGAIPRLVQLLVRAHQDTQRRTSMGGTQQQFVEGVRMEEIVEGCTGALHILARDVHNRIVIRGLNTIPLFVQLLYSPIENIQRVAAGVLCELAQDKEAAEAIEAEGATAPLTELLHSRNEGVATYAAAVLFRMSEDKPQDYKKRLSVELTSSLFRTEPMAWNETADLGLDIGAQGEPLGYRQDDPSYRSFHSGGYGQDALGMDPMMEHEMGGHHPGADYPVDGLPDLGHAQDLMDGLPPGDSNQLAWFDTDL
UniProt O15047: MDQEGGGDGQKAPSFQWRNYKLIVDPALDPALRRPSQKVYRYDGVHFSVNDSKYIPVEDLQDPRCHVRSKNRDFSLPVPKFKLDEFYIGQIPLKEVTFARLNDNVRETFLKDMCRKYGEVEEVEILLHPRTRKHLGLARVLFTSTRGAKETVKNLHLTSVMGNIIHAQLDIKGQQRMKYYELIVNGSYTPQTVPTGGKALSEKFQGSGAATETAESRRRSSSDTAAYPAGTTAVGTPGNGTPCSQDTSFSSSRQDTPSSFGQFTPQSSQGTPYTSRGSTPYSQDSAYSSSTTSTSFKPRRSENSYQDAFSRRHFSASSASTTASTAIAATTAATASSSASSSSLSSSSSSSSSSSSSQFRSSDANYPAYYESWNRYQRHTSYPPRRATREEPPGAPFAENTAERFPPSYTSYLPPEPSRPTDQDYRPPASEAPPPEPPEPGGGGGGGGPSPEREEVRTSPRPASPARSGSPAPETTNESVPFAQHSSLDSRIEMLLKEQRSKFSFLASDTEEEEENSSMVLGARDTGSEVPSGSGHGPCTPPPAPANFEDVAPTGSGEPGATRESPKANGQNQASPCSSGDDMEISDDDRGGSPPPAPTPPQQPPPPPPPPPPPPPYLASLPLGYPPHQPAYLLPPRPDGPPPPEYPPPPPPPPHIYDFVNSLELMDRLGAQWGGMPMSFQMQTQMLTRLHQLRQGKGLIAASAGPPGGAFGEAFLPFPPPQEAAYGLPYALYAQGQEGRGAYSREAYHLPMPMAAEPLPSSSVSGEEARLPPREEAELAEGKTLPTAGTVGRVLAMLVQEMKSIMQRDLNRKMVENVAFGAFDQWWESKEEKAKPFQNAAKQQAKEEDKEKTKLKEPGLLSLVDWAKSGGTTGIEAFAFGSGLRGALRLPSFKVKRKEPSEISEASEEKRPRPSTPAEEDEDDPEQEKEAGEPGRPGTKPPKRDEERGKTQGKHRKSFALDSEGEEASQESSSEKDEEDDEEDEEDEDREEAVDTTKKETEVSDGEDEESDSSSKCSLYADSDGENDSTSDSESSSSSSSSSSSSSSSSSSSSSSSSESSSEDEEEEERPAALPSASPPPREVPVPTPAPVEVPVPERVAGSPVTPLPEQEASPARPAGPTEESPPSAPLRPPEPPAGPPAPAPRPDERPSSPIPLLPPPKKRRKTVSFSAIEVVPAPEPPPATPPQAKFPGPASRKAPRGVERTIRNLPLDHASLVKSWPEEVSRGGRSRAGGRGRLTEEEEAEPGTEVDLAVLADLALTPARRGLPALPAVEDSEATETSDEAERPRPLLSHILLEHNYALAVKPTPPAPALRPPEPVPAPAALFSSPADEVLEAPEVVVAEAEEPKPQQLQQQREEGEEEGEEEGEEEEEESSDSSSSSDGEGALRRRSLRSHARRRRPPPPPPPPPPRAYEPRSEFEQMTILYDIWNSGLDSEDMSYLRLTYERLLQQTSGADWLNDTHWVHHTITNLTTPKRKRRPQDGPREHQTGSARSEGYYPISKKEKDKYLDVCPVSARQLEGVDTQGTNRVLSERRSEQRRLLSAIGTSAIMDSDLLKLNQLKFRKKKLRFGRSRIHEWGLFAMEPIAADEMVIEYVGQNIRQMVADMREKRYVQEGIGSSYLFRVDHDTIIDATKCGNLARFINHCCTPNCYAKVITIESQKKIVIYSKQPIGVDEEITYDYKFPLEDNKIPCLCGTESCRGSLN

No constants are given. Whether binding was seen depends on the method and setting. In cells and extracts the contact can be indirect. Some results given as binding are weak or reduced against the parent protein; the word gives no strength.

In assay [1] the target is β-catenin (human (endogenous in PC9 and BEAS-2B)) (UniProt P35222). In words: co-IP; endogenous proteins in lysates of PC9 or BEAS-2B cells; IP with anti-SETD1A or anti-β-catenin antibody, Protein A/G PLUS-Agarose, western blot; for the destruction complex: PC9 cells with or without SETD1A knock-down, Wnt3a for 12 h, IP with β-catenin antibody. (A western blot detects proteins with antibodies after separation by electrophoresis.)

Assay [2] concerns the target SETD1A (human (endogenous in PC9 and BEAS-2B)) (UniProt O15047). The description is as above.
The next assay has as its target Flag-tagged SETD1A (UniProt O15047). Put plainly: co-IP; two-step co-IP; HEK293T cotransfected with Flag-tagged SETD1A and HA-tagged β-catenin; first IP anti-Flag M2 beads, elution with 3 x Flag peptide (250 μg/ml), second IP with anti-HA or control IgG; blots with anti-Flag, anti-HA and anti-PKAα cat.

Take SETD1A (from UniProt O15047 1-1707): the binding entry in assay [1] is on record as “binds”.
As for β-catenin (from UniProt P35222 1-781), the binding entry in assay [2] was “binds”.
Take “HA-tagged full length β-catenin (from UniProt P35222 1-781)”: the binding result with Flag-tagged SETD1A was “binds”.
